Measured values from PubChem BioAssay AID1487 (National Center for Advancing Translational Sciences (NCATS), 2009).
The list shows a part of the results. The main result of the screen is listed elsewhere. These columns were measured beside it and carry no call. Most of these compounds were active or inconclusive in the main read-out, so they are no random draw. Words in brackets tell the shape of the fitted curve; partial curves, single points and poor fits give uncertain potencies.

Test: qHTS Assay for Modulators of Lamin A Splicing
Details: HeLa LMNA splicing GFP/RFP minigene ratio, 48 h
Method in brief: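 S3 HeLa cells stably expressing lamin A-EGFP splicing minigene plus DsRed2, 600 cells/well, 48 h compound exposure at 37C. Laser-scanning cytometry; analysed as GFP (500-530 nm)/RFP (575-640 nm) total intensity ratio; 0.5% DMSO vehicle.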

[1] = measured here: RFP viability control channel
[2] = measured here: GFP splicing reporter channel

Row | Compound | AC50 [1] | AC50 [2]
1 | COCCNC(=O)C1(C)C=CC2(CCCCC2)N1C(=O)c1ccccc1 (stereo unspecified) | 0.1 µM [rising, full curve] | 
2 | Cc1csc(SC(C)C(=O)NCc2ccc3c(c2)OCO3)n1 (stereo unspecified) | 1.26 µM [falling, partial curve, poor fit] | 
3 | CCOC(=O)c1c(S(=O)(=O)N2CCC(C(=O)Nc3ccc(C)c(Cl)c3)CC2)c(C)n(C)c1C | 0.01 µM [falling, full curve, poor fit] | 
4 | Clc1ccc(CSc2nnc(-c3cccnc3)n2Cc2ccco2)c(Cl)c1 | 14.1 µM [rising, single point] | 22.4 µM [rising, single point]
5 | Cc1ccc2[nH]c(=O)c(CN(CCCN3CCOCC3)C(=O)Nc3ccc(Cl)cc3)cc2c1 |  | 0.00355 µM [rising, full curve, poor fit]
6 | O=C(Nc1ccc(S(=O)(=O)N2CCCCC2)cc1)C1CCCN(C(=O)c2ccc(Cl)cc2)C1 (stereo unspecified) | 5.62 µM [rising, full curve] | 2.24 µM [rising, single point]
7 | O=C(c1ccc([N+](=O)[O-])s1)N1CCN(c2cccc(Cl)c2)CC1 | 20 µM [rising, single point] | 11.2 µM [rising, single point]
8 | O=S(=O)(c1ccc(-c2cnc(C3CC3)o2)cc1)N1CCN(c2ccc(F)cc2)CC1 | 0.316 µM [rising, full curve] | 
9 | COC(=O)c1c(NC(=O)c2ccccc2N(C)S(=O)(=O)c2ccccc2)sc2c1CCCC2 | 3.16 µM [rising, single point] | 
10 | COc1ccc(OC)c(NC(=O)CSC2=Nc3ccccc3C3=NC(CC(=O)NCCc4ccccc4)C(=O)N23)c1 (stereo unspecified) |  | 10 µM [rising, partial curve]
11 | C=CCOc1ccc(NC(=O)C(=O)NCCCn2ccnc2)cc1 | 28.2 µM [falling, single point] | 
12 | O=C(N/N=C1\CC(c2ccccc2)Oc2ccccc21)c1cccnc1 (stereo unspecified) | 0.398 µM [falling, full curve, poor fit] | 
13 | Cc1ccc(NC(=O)C(=O)NCCN2CCN(S(C)(=O)=O)CC2)cc1C |  | 0.282 µM [rising, full curve, poor fit]
14 | Cc1cc2nc(N3C(=O)CNC3=S)sc2cc1C | 35.5 µM [rising, single point] | 
15 | Oc1c(C(c2ccccc2)N2CCCC2)sc2nc(-c3ccco3)nn12 (stereo unspecified) |  | 2.82 µM [rising, full curve, poor fit]
16 | CCOC(=O)/C(C#N)=N/Nc1c(S(=O)(=O)Cc2ccco2)csc1C(=O)OC | 1.78 µM [falling, partial curve] | 
17 | CCOC(=O)c1c(C)[nH]c(CCC(=O)NCc2cc(OC)c(OC)c(OC)c2)c1C | 7.08 µM [rising, partial curve] | 0.398 µM [rising, full curve]
18 | OCCC1CN(Cc2cccc(-c3ccco3)c2)CCN1Cc1ccsc1 (stereo unspecified) | 7.94 µM [falling, full curve, poor fit] | 
19 | O=[N+]([O-])c1ccc(NNC(=S)Nc2ccc(F)cc2)cc1 | 17.8 µM [rising, single point] | 
20 | CC(=O)Nc1sc2c(c1C(c1ccccc1)N1CCOCC1)CCCC2 (stereo unspecified) | 15.8 µM [rising, single point] | 
21 | COc1cc(OC)cc(C(=O)N/N=C/c2ccc(OC)c(COc3ccc(F)cc3)c2)c1 | 6.31 µM [falling, full curve] | 5.01 µM [falling, full curve]
22 | COc1cccc(C2CC(c3ccccc3)=NN2S(=O)(=O)c2ccc(C)cc2)c1OC (stereo unspecified) | 6.31 µM [rising, partial curve, poor fit] | 5.62 µM [rising, partial curve, poor fit]
23 | N=c1n(Cc2ccccc2)c2ccccc2n1Cc1ccccc1 | 31.6 µM [rising, single point] | 15.8 µM [rising, single point]
24 | CCN1CCN(C(c2ccccc2Cl)c2sc3nc(-c4ccco4)nn3c2O)CC1 (stereo unspecified) |  | 0.0224 µM [falling, full curve, poor fit]
25 | Cc1cccc(CNc2ncncc2-c2ccc3c(c2)OCO3)c1 | 35.5 µM [rising, single point] | 
26 | O=C(Nc1nnc(-c2ccccc2Cl)o1)c1nc2ccccc2s1 | 31.6 µM [rising, single point] | 
27 | CCCc1cc(=O)n2[nH]c(NCc3ccccc3Cl)nc2n1 | 35.5 µM [falling, single point] | 
28 | CC(C)Oc1ccc(C(=O)NCC(c2ccc(N(C)C)cc2)N2CCc3ccccc32)cc1 (stereo unspecified) |  | 35.5 µM [falling, single point]

Row | Compound | AC50 [1] | AC50 [2]
29 | O=C(NCc1cccnc1)c1ccc([N+](=O)[O-])o1 | 20 µM [falling, partial curve, poor fit] | 11.2 µM [falling, partial curve, poor fit]
30 | CCN(c1ccccc1)S(=O)(=O)c1nnc(NC(=O)C2CCCCC2)s1 | 12.6 µM [falling, partial curve, poor fit] | 14.1 µM [falling, partial curve, poor fit]
31 | CC(C)(C)c1ccc(C(=O)c2c[nH]c(C(=O)NCc3ccco3)c2)cc1 | 17.8 µM [falling, single point] | 35.5 µM [falling, single point]
32 | CNC(=S)N/N=C/c1cc(C)n(-c2ccc(Cl)c(Cl)c2)c1C | 35.5 µM [rising, partial curve] | 28.2 µM [rising, single point]
33 | Cc1ccc(C)c(N2CCN(C(=O)c3ccc(Cn4c(=O)[nH]c5ccccc5c4=O)cc3)CC2)c1 | 15.8 µM [rising, single point] | 11.2 µM [rising, partial curve, poor fit]
34 | O=C(Nc1ccc(Br)cc1)c1cc(S(=O)(=O)NC2CCCC2)ccc1F | 11.2 µM [falling, partial curve, poor fit] | 8.91 µM [falling, partial curve]
35 | O=C(Cn1nc2ccccc2n1)N/N=C/c1cc(Cl)cc([N+](=O)[O-])c1O |  | 17.8 µM [falling, single point]
36 | C=CCn1c(SCC(=O)Nc2nc3ccccc3s2)nnc1-c1ccccc1O | 35.5 µM [rising, single point] | 
37 | O=C(NNc1cccc(Cl)n1)Nc1cccc(C(F)(F)F)c1 | 14.1 µM [rising, partial curve, poor fit] | 11.2 µM [rising, single point]
38 | Cc1ccc(Cn2ncc3c(N4CCN(CC#N)CC4)ncnc32)cc1 |  | 12.6 µM [falling, single point]
39 | CCC(C)(C)n1nnnc1C(c1ccc2ncccc2c1)N1CCN(c2nc3ccccc3s2)CC1 (stereo unspecified) | 8.91 µM [rising, partial curve] | 
40 | CNC(=S)N=Nc1c(O)[nH]c2ccccc12 | 14.1 µM [rising, single point] | 14.1 µM [rising, single point]
41 | O=C(Nc1cccc(O)c1)c1ccc(C(F)(F)F)cc1 | 0.794 µM [falling, partial curve] | 1.12 µM [falling, partial curve, poor fit]
42 | O=C(O)CSc1nc(-c2ccc(Cl)cc2)nc2c1oc1ccccc12 | 31.6 µM [rising, single point] | 
43 | Cc1ccc(-c2ccc(/C=C3\SC(N4CCOCC4)=NC3=O)o2)cc1 | 0.355 µM [falling, full curve, poor fit] | 0.447 µM [falling, full curve, poor fit]
44 | CCOc1ccccc1NS(=O)(=O)c1ccc(N2CCCCS2(=O)=O)cc1 |  | 0.0794 µM [falling, full curve, poor fit]
45 | Fc1ccccc1CSc1ncnc2c1oc1ccccc12 | 22.4 µM [rising, single point] | 
46 | CC(C)CCCC(C)CCCC(C)CCCCC(C)CCCC(C)CCCC(C)C (stereo unspecified) | 31.6 µM [rising, single point] | 
47 | CC(=O)Nc1ccc(NC(=O)/C=C/c2ccc3c(c2)OCO3)cc1 |  | 35.5 µM [rising, single point]
48 | O=C(CSc1ccccc1F)NC(=O)NCc1ccco1 | 11.2 µM [rising, single point] | 20 µM [rising, single point]
49 | Cc1ccc(C)c(NC(=O)Cn2c(SCC(=O)NCc3ccccc3)nc3ccccc32)c1 |  | 0.708 µM [falling, full curve, poor fit]
50 | O=c1[nH]c(SCC2CCCCO2)nc2ccccc12 (stereo unspecified) |  | 11.2 µM [rising, single point]
51 | CCC(=O)N1CCc2cc(CNS(=O)(=O)c3ccc(CC(C)C)cc3)ccc21 |  | 0.631 µM [rising, full curve]
52 | CC(C)(C)c1cc(NC(=O)c2ccc(OC3CCCC3)cc2)no1 | 31.6 µM [rising, single point] | 31.6 µM [rising, single point]
53 | CC(=O)NC1C(Oc2ccc(C=O)cc2)OC(COC(C)=O)C(OC(C)=O)C1OC(C)=O (stereo unspecified) | 0.282 µM [falling, full curve, poor fit] | 0.447 µM [falling, full curve, poor fit]
54 | CCN(CC)S(=O)(=O)c1ccc2[nH]cc(C(=O)NCCC3=CCCCC3)c(=O)c2c1 | 3.55 µM [rising, partial curve] | 
55 | O=C(NCCCCc1ccccc1)C1CC(c2ccc([N+](=O)[O-])cc2)=NO1 (stereo unspecified) | 25.1 µM [rising, single point] | 15.8 µM [rising, single point]

A run of entries taken from the entries so far, as a working copy:
Row | Compound | AC50 [1] | AC50 [2]
10 | COc1ccc(OC)c(NC(=O)CSC2=Nc3ccccc3C3=NC(CC(=O)NCCc4ccccc4)C(=O)N23)c1 (stereo unspecified) |  | 10 µM [rising, partial curve]
11 | C=CCOc1ccc(NC(=O)C(=O)NCCCn2ccnc2)cc1 | 28.2 µM [falling, single point] | 
12 | O=C(N/N=C1\CC(c2ccccc2)Oc2ccccc21)c1cccnc1 (stereo unspecified) | 0.398 µM [falling, full curve, poor fit] | 
13 | Cc1ccc(NC(=O)C(=O)NCCN2CCN(S(C)(=O)=O)CC2)cc1C |  | 0.282 µM [rising, full curve, poor fit]
14 | Cc1cc2nc(N3C(=O)CNC3=S)sc2cc1C | 35.5 µM [rising, single point] | 
15 | Oc1c(C(c2ccccc2)N2CCCC2)sc2nc(-c3ccco3)nn12 (stereo unspecified) |  | 2.82 µM [rising, full curve, poor fit]
16 | CCOC(=O)/C(C#N)=N/Nc1c(S(=O)(=O)Cc2ccco2)csc1C(=O)OC | 1.78 µM [falling, partial curve] | 
17 | CCOC(=O)c1c(C)[nH]c(CCC(=O)NCc2cc(OC)c(OC)c(OC)c2)c1C | 7.08 µM [rising, partial curve] | 0.398 µM [rising, full curve]
18 | OCCC1CN(Cc2cccc(-c3ccco3)c2)CCN1Cc1ccsc1 (stereo unspecified) | 7.94 µM [falling, full curve, poor fit] | 
19 | O=[N+]([O-])c1ccc(NNC(=S)Nc2ccc(F)cc2)cc1 | 17.8 µM [rising, single point] | 
20 | CC(=O)Nc1sc2c(c1C(c1ccccc1)N1CCOCC1)CCCC2 (stereo unspecified) | 15.8 µM [rising, single point] | 
